Data published in patent publication US9896470B2, “Enhancing the stability and purity and increasing the bioavailability of human milk oligosaccharides or precursors or blends thereof” (Glycom A/S, priority 2012, dated 2018).
At least one compound was matched to its structure with a doubt left.

Test: Shelf life of spray-dried material on storage
Type: physicochemical
Conditions: below 40° C. storage temperature

## CC(=O)N[C@H]1[C@H]([C@H](O)[C@H](O)CO)OC(O)(C(=O)O)C[C@@H]1O (stereo partly shown) [spray dried Neu5Ac, Sialic Acid]
  shelf life: excellent shelf life
